Variants at the background level are over-represented here.
B1: tRNA (parent)
chain: GUUCCGUUGGCGUAAUGGUAACGCGUCUCCCUCCUAAGGAGAAGACUGCGGGUUCGAGUCCCGUACGGAACG

Variants of: B1
Test: yeast fitness relative to wild type (ratio to wild type); higher = fitter; tRNA-Arg(CCU), competitive growth, 37 C, YPD
How it was run: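 Amplicons of the tRNA-Arg(CCU) gene were sequenced, 100-nucleotide paired-end, from the start population and from each end population of a pooled yeast competition. The competition, in six parallel replicates, lasted 24 hours in YPD at 37°C. Fitness relative to wild type was calculated from changes in genotype frequencies. Genotypes had to have ≥ 100 starting reads, and estimates < 0.5 were set to 0.5.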

Variant	yeast fitness
GUUCCGUUGGCGUAAUGGUAACGCGUCUCCCUUCUAAGGAGAUGACUGGCGGUUCGAGUCCCGUACGGAACG [C33U A43U C49G G50C]	≤ 0.5
GUUCCGUUGGCGUAAUGGUACCGAGUCUCCCUCCUAAGGAGAAGACUGCCGGUUCGAGUCCCGUACGGAACG [A21C C24A G50C]	≤ 0.5
GUUCCGUUGACGUAAUGGUAGCGCGUCUCCCUCCUAAGGAGAAGACUGCGGGUUCGAGUCCCGUAAGGAACG [G10A A21G C66A]	≤ 0.5
GUUCCGUUGGAGUCAUGGUAACGCGUCUCCCUCCUAAGGAGAAGACUGCGGGUUCGAGUCCCGUACGGAACG [C11A A14C]	0.683
GUUCGGUUGGCGUAAUGGUAACGCGUCUCCAUCCUAAGGAGAAGACUGCGGGUUCGAGUCCCGUAGGGAACG [C5G C31A C66G]	≤ 0.5
GUUCCGUUCGCGUAAUGGUAACGCGUCUCCCUCCUAAGGAGAAGACUGCGGGUUCGAGUCUCGUAAGGAACG [G9C C61U C66A]	≤ 0.5
GUUCUGUUGGCGUAAUGGUAACGCGUCUCCCUCCUAAGGAGAAGACUGCGGGAACGAGUACCGUACGGUACG [C5U U53A U54A C60A A69U]	≤ 0.5
GUUCCGUUGGCGUAAUGGUAACACGACUCUCUCCUAAGGUGAAAACUGCGGGUUCGAGUCCUGUACGGAACG [G23A U26A C30U A40U G44A C62U]	≤ 0.5
GUUCCGUUGGCGCAAUGGUGACGCGUCUCUCUUCUAAGGAGAAGACUGCGGGUUCGAGUCCCGUACGGUGCG [U13C A20G C30U C33U A69U A70G]	≤ 0.5
GUUACGUUGGCCUAAUGGUAACGCGUCUCCCUCCUAAGGACAAGACUGCGGGUUCGCGUCCCGUACGAAACG [C4A G12C G41C A57C G68A]	≤ 0.5
GUUCCGUCGGCGUAAUGGUAACGUGUCUCCCUCCUAAGGAGAAGUCUGCGGGUUCGAGUCCCGUACGGAACG [U8C C24U A45U]	0.608
GUGCUGUUGGCGUAAUGGUAACGCGUCUCCCUCCUAAGGAGAAGACUGCGGGUUUGAGUCCCGUACGGAACG [U3G C5U C55U]	≤ 0.5
GUUCCGUUGGCGUAAUGGAAAGCCGUCUCGCUCAUAAGGAGAAGACUGCGGGUUCGAGUCCCGUACGGAACG [U19A C22G G23C C30G C34A]	0.519
GUUCAGUUGGCGUAAUGGCAACGCGUCUCGCUCCUAAGGAAAAGUCUGCGGGUUCGAGUCGCGUACGGAACG [C5A U19C C30G G41A A45U C61G]	≤ 0.5
GUUCCAUUGGCGUAAUGGUAACGCGUCUCCCUCCUAAGGGGAAGACUGCGGGUUGGAGUCCCGUACGGAACG [G6A A40G C55G]	≤ 0.5
GUUCGGUUCGCGUAAUGGUAACGCGUCUCCCUCCUAAGGCGAAGACUGCGGGUUCGAAUCCCGUACGGAACG [C5G G9C A40C G58A]	≤ 0.5
GUUCCGUUGGCGUAAUGGUAACGCGUCUCCAUCCUAAGGUGAAGACUGCGGAUUCGAGUUCCGUACGGAACG [C31A A40U G52A C60U]	≤ 0.5
GUUCCGUUGGCCUAAUGGUAACGCGUCUCCCUCAUAAGGAGAAGACUGCGGGUUCGAGUCCCAUACGGAACG [G12C C34A G63A]	≤ 0.5
GCUCCGUUGGCAUAGUGGUAACGCGUCUCCCUCCUAAGGAGAAGACUGCGGGUUCGAGUCCCGUAUGAAACG [U2C G12A A15G C66U G68A]	≤ 0.5

Variant	yeast fitness
GUUCCGUUGACGUAAUGGUAACGCGUCUCCCUUCUAAGGAGAAGACUGUGGGUUCGAGUCCCGUACGGAACG [G10A C33U C49U]	0.663
GUUGCGUUAGCGUAAUGGUAACGCGUCUUCCUCCUACGGAGAAGACUGCGGGUUCGAGUCCCGUACGGAACG [C4G G9A C29U A37C]	≤ 0.5
GUUCCGUAGGCGUAAUGGUAACACGUCUCGCUCCUAAGGAGAAGACUGCGGGUUCGAGUCCCGUUCGGAUCG [U8A G23A C30G A65U A70U]	≤ 0.5
GUUCCGUUGGGGUAAUGGUAACGCGGCUCCGUCCUAAGGAGAAGACUGCGGGUUCGAGUCCCGUACGGAACG [C11G U26G C31G]	≤ 0.5
GUUCGGUUGGGGUAAUGGUAACGCGUGUCCCUCCUAAGGAGAAGACUGCGGGUUCGAGUCCCGUACUGAACG [C5G C11G C27G G67U]	≤ 0.5
GUUCCGUUGGCGUAAUGGUCACGCGUCUCCCUCCAGAGGAGAACACUGCGGGUCCGCGUCCCGUACGGAACG [A20C U35A A36G G44C U54C A57C]	≤ 0.5
GUUCCGUUGGCGUAAUGGUAACGCGUAUCCCUCCUAAGGAGAAGACUGCGGGUUCGGGUCCCAUACGGAACG [C27A A57G G63A]	0.551
GUUCCCUUGGCGUAAUGGUAACGCGUCUCCCUCAUAGGGAAAAGACUGCGGGUUCGAGUCCCGUACGGAACG [G6C C34A A37G G41A]	≤ 0.5
GUUCCGUUGGCGUAAUGGUAACGGGUCUCCCUCCUAAGGAGAAGACUACGGGUUCGUGUCCCGUACGGAACG [C24G G48A A57U]	≤ 0.5
GUUCCGUUGCCGUAACGGUGACGCGUCUCCCUCCUAAGGAGAAGACUGCGGGUCUGAGUCCCGUACGGAACG [G10C U16C A20G U54C C55U]	≤ 0.5
GUUCCGAUGACGUAAUGGUAACGCGUCUCCCUCCUAAGGGGAAGACUACGGGUUCGAGUCCCGUACGGAACG [U7A G10A A40G G48A]	≤ 0.5
GUUCGGUUGGCGUAAUGGUAACGCCUCUCCCUCCUAAGGAGAAGAGUGCGGGUUCGAGUCCCGGACGGAACG [C5G G25C C46G U64G]	≤ 0.5
GUUCCGUUGGUGUAAUGGUAACGCGUCUCCCUCGUAAGCAGAAGACUGCGGGUUCGAGUCCCGUACGGAACG [C11U C34G G39C]	≤ 0.5
GUUGCGUUGGCGUAAUGGUAACGCGUCUCACUCCUAAGGAGCAGACUGCGGGUUCGAGUCCCGUACCGAACG [C4G C30A A42C G67C]	≤ 0.5
GUUCCGUUGGCGUAAUGGAAACGCGUCACCCUCCUAAGGAGAAGACUGCCGGUUCAAGUCCCGUACGGAACG [U19A U28A G50C G56A]	≤ 0.5
GUUCCGUUGGCGUACUGGUAACGCGUCUCCCUCCUCACGAGAAGACUGCGGAUUCGAGUCUCGUACGGAACG [A15C A36C G38C G52A C61U]	≤ 0.5
GUUCCGUUGGCAUACUGGUAACGAGUCUCCCUCCUAAGGAGAAGACUGCGGGUUCGAGUCCCGUACGGAACG [G12A A15C C24A]	≤ 0.5
GUUGCGUUGGCGUAAUGGUAACGCGUCCCCCUGCUAAAGAGAAGACUGCGGGUUCGAGUCCGGGACGGAACG [C4G U28C C33G G38A C62G U64G]	≤ 0.5
GUUCCGUUAGGGUAAUGGUAACGGGUCUCCCACCUAAGGAGAAGACUGCGGCUUCGAGUCCCGUACGGAACG [G9A C11G C24G U32A G52C]	≤ 0.5

From the RNAGym collection of RNA variant scans (doi:10.1126/science.aae0568)
